Hit rate of the full screen: of about 31,000 sequences, about 1,400 (4.5%) were called active.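 Rule for the calls: active = median seed-adjusted z-score above 1 or below -1; inactive = the rest.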 This is one part of the list.

A short description of this assay: Novel Modifiers of Survival Motor Neuron (SMN) Protein: Gene Identification via Genome-wide siRNA Screen.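 Note: luminescence tracks full-length SMN protein made from the SMN2 reporter.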 As to conditions: HEK293T SMN2-luciferase reporter, siRNA knockdown, 72 h; actives lie on both sides. Summed up: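 siRNA screen, 10418 genes ×3 siRNAs; 1 pmol/well, lipid reverse transfection into HEK293T SMN2-luc reporter line. 72 h, 37 °C, 5% CO2; ONE-Glo readout. Data: neg-ctrl normalized, log10, MAD; hit = MAD >1.0 or < -1.0.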
As for CAACCUGAGUUUUAAAAUATT against TUBB2B, the median seed-adjusted z-score was inactive: 0.935.

AGUCCCUCUUCGUCUCUAATT against ALDOA: the median seed-adjusted z-score was inactive: -0.258.

As to CCAUCACCAGCUUUAUUGATT against GDF5, the median seed-adjusted z-score was inactive: -0.0507.

GCAUGUGACCCAGAGGUUATT against ACIN1: the median seed-adjusted z-score was inactive: -0.674.

In the case of UACAUGAUAUGAUCAUUAATT against ARL4A, the median seed-adjusted z-score was inactive: -0.572.

For the sequence CAUCUGCACUGGGCAAGAATT against NOX5, the median seed-adjusted z-score was inactive: 0.178.

With GCUGCUUGUGGAUUCGCUATT against TLN2, the median seed-adjusted z-score was inactive: -0.0106.

Consider AGAAGACAGAGGGUUCGAATT against OSCAR, for which the median seed-adjusted z-score was inactive: 0.114.

On to UCAAGUCCCUGGUCCUGCATT against HIC2, for which the median seed-adjusted z-score was inactive: -0.283.

With UCACUUUCCCUGUAAAUAUTT against CD84, the median seed-adjusted z-score was inactive: 0.629.

GGAUAGCAAUAGAUUGCGATT against PHF20L1: the median seed-adjusted z-score was inactive: 0.

In the case of GGAUCGAGGACAUGAGGAATT against IKBKG, the median seed-adjusted z-score was inactive: -0.615.

Turning to CAUGGAACAUUGUGAGAAATT against RPS6KB1, the median seed-adjusted z-score was active: 1.4.

For GCAUAAAACUGAAGGUGGATT against PTPRN, the median seed-adjusted z-score was inactive: -0.272.

Consider GGACUUGACAUGACUGGAATT against RORB, for which the median seed-adjusted z-score is inactive: 0.044.

On to CCCUGAUUGCUCUAAAGAATT against IGHMBP2, for which the median seed-adjusted z-score was inactive: -0.271.

In the case of GCGAAACGGAGGAACGAAATT against DDX31, the median seed-adjusted z-score was inactive: 0.0144.

Turning to GCAUUUCGCGGAGUACGCATT against MPST, the median seed-adjusted z-score was inactive: -0.181.

For the sequence CAACCUAAAGAGACCCUAATT against PRSS33, the median seed-adjusted z-score is inactive: -0.588.

Turning to AUACCAAGGUGCAAUUAAATT against HOXA13, the median seed-adjusted z-score was inactive: -0.136.

CCCAAUCCUUUAUGUUUUUTT against CCRL1: the median seed-adjusted z-score was inactive: -0.347.

Take GCAUUUUGCAUAUCCACCATT against TRMT12: the median seed-adjusted z-score was inactive: 0.352.

GAACUUAUCAUAUCAAGUUTT against CTNND1: the median seed-adjusted z-score was inactive: 0.38.

With GGAAAUACCACGAUGCAAATT against CTCFL, the median seed-adjusted z-score is inactive: -0.362.

For GCCUACAACUUUUCAACCATT against SEC24A, the median seed-adjusted z-score is inactive: 0.038.

For the sequence GUCAUAGCCUGGAUGGAAATT against CPXM2, the median seed-adjusted z-score was inactive: 0.

Turning to GGUUGCUAUAUGUUCCGAATT against MLL, the median seed-adjusted z-score is inactive: 0.227.

On to CUACGUCGCCUCUACCAAATT against CTNNA1, for which the median seed-adjusted z-score was inactive: -0.0588.

For the sequence AACAGUAUCUUUCAGAAUATT against TMPRSS5, the median seed-adjusted z-score is active: 1.25.

Consider AGUCUGCCCUGACCGUGAATT against RASL12, for which the median seed-adjusted z-score was inactive: -0.256.

GUCACUUCAUGGGCAAGAATT against NMB: the median seed-adjusted z-score was inactive: 0.746.

For GAGUCUAACUAGUUAUGAUTT against MCOLN3, the median seed-adjusted z-score was inactive: -0.09.

Consider CCAGUUGCAAUUAAGUAUATT against AGPAT9, for which the median seed-adjusted z-score was inactive: 0.

With CGGACUCUUCAGUAGUUAATT against ANGPTL5, the median seed-adjusted z-score is inactive: 0.

As for AGAUAUCUUUCAGAUCCAATT against SYNPR, the median seed-adjusted z-score is inactive: 0.257.

As to GACAAGUAGUAUUAUCGGATT against TXNDC3, the median seed-adjusted z-score is inactive: -0.649.

As for GCAUGGAUGCUUCUAGACATT against AKAP9, the median seed-adjusted z-score was active: -1.22.

Regarding GCGGGUGACCUAUAACAAUTT against TES, the median seed-adjusted z-score was inactive: -0.698.

As for CGAUAUAUGGAAGAUAGUATT against PTK2, the median seed-adjusted z-score is inactive: -0.0806.

Turning to GGCUUUCUGUGGUCGGGUATT against ANGPT4, the median seed-adjusted z-score is inactive: 0.

For the sequence GGCAGAUUGUGGAUGCGCATT against PML, the median seed-adjusted z-score is inactive: -0.415.

Turning to GAUGGAUUCUUUGCGAGAATT against QSOX1, the median seed-adjusted z-score is inactive: -0.154.

Turning to GGCAAUGUUGUUUAAUGUATT against THAP3, the median seed-adjusted z-score is inactive: 0.269.

As for CAUGUACUAUUUUCAGUAUTT against SETD8, the median seed-adjusted z-score is active: -1.52.

As for CAUCUAAACUUUACAAACATT against CASR, the median seed-adjusted z-score was inactive: 0.111.

With GGAUGGACAUGUCAAAUCUTT against RBL1, the median seed-adjusted z-score was inactive: -0.0547.

As for GCAUGGGAUUUGCAACGAATT against SPTLC2, the median seed-adjusted z-score is inactive: 0.

As for CCAAAGGAGUCAGCACUGUTT against PLXNA1, the median seed-adjusted z-score was inactive: 0.

Turning to GGCUGAUACUAUUUUACGATT against SLITRK6, the median seed-adjusted z-score is inactive: -0.136.

With GCUUUGAUCCCGACUGUAATT against CELSR1, the median seed-adjusted z-score is inactive: -0.466.

As for GGAGUGAUCUCAACCCUAATT against DUOX2, the median seed-adjusted z-score is inactive: 0.525.

Turning to GAAUGAACGGAGACCAGAATT against FDPS, the median seed-adjusted z-score was inactive: 0.0115.

Take GAGAAGGCAUAGAUCUAAATT against SP100: the median seed-adjusted z-score was inactive: -0.235.

Turning to GAUCUAUACCUGCUAAUUATT against RAPGEFL1, the median seed-adjusted z-score was inactive: 0.21.

Consider GGACAUCAGUUAAUAAGGUTT against CEBPZ, for which the median seed-adjusted z-score was inactive: 0.301.

Consider GUGUAAGGAUCAAAAAGAATT against ZNF682, for which the median seed-adjusted z-score was inactive: -0.155.

As for GGUCUACGCGUUCUACGAGTT against GPR150, the median seed-adjusted z-score is inactive: -0.129.

With GACACUCGCAGGAAAAUUATT against SEC14L3, the median seed-adjusted z-score was inactive: 0.308.

Turning to CAGUGUUCCUGAAACCGCUTT against ADAR, the median seed-adjusted z-score is inactive: 0.267.

Regarding GGAUCACCAACAAUCGCAATT against PDE6A, the median seed-adjusted z-score was active: 1.25.

Take GGAACUCGAUCGUAUCAUUTT against AR: the median seed-adjusted z-score was inactive: -0.559.

Take GAAGCUUAAUGAAGAUAAATT against FKBP3: the median seed-adjusted z-score is inactive: -0.102.

In the case of AGAAGUUUUGUACAGAGAATT against SREBF1, the median seed-adjusted z-score was inactive: -0.0469.

Turning to CUGUCUUUCACGUCAAGUATT against NOC4L, the median seed-adjusted z-score is inactive: -0.315.

Turning to GGAUGACGAUGCAAACCAUTT against ZNF776, the median seed-adjusted z-score is inactive: -0.394.

With GCAGCUCGGUCUCUGACUATT against EDG1, the median seed-adjusted z-score is inactive: -0.316.

As to GCCUAACUGCUCUUCGUAUTT against ACVR1C, the median seed-adjusted z-score was inactive: -0.0005.

In the case of GCUGUACACUUAGCAUGUATT against METAP1, the median seed-adjusted z-score is inactive: -0.139.

For the sequence CCGAAUCAAUUGAUCAGAATT against FNBP1, the median seed-adjusted z-score was inactive: -0.168.

These data come from PubChem BioAssay AID1347426 (Functional Genomics Laboratory (NCATS/FGL), 2020).
